# At least one structure is not confirmed: it was looked up by name or label, or the drawing left a doubt.
# Test system: embryonic heart explants
# Experiment: embryonic heart explant collagen gel migration assay
# Assay type: cell-based, mouse
# Details: 100 nM wortmannin with thymosin β4, p<0.05
# Method: To test the effects of secreted thymosin β4 on cardiac cell migration, an embryonic heart explant system designed to assay cell migration and transformation events on a three-dimensional collagen gel was utilized. In this assay, explants of adjacent embryonic myocardium and endocardium from valve-forming regions were placed on a collagen gel with the endocardium adjacent to the collagen.
# To test the response of post-natal cardiomyocytes, primary rat neonatal cardiomyocytes were cultured on laminin-coated glass and treated the cells with phosphate buffered saline (PBS) or thymosin β4.
# To determine if activation of ILK was necessary for the observed effects of thymosin β4, a well-described ILK inhibitor, wortmannin, was employed, which inhibits ILK's upstream kinase, phosphatidylinositol 3-kinase (PI3-kinase). Using myocardial cell migration and beating frequency as assays for thymosin β4 activity, embryonic heart explants were cultured as described above in the presence of thymosin β4 with or without wortmannin.
# Outflow tract was dissected from E11.5 wild type mouse embryos and placed on collagen matrices as previously described. […] Cells were counted for quantification of migration and distance using at least three separate explants under each condition for endothelial migration and eight separate explants for myocardial migration. […]
structure (smiles),measurement,value
"COC[C@H]1OC(=O)c2coc3c2[C@@]1(C)C1=C(C3=O)[C@@H]2CCC(=O)[C@@]2(C)C[C@H]1OC(C)=O [wortmannin, reference compound]",beating frequency in the presence of thymosin β4,significant reduction
same,myocardial cell migration in the presence of thymosin β4,significant reduction

# From US20090214507A1, “METHOD OF TREATING PREVENTING, INHIBITING OR REDUCING DAMAGE TO CARDIAC TISSUE” (RegeneRx Biopharmaceuticals, Inc., priority 2004, published 2009)
